# Values of other authors in patent publication US20060253263A1, “Method to optimize drug selection, dosing and evaluation and to help predict therapeutic response and toxicity from immunosuppressant therapy” (priority 2005, published 2006).
# Like-named read-outs stand apart in the source and are kept apart here.
# Conditions: cited from earlier work
compound,measurement,setting,value
"O=c1[nH]cc(F)c(=O)[nH]1 [5-FU, 5-Fluorouracil]",elimination half-life,normal individuals,10 to 15 min
same,elimination half-life,people genetically deficient in DPD,about 2.5 hours
